Assay results published in PubChem BioAssay AID272 (DTP/NCI, 2004).
The list is a part of this screen's results and no random one: it gathers tests that were run many times, whatever their T/C, doses with no T/C, and many T/C values between a quarter and a half above the control. Other doses and runs of a compound stand elsewhere. T/C gives the treated animals as a percentage of the vehicle group. Some doses have a count of surviving animals in place of a T/C: the source files T/C as zero there, which appears to mark a toxic dose or a test without result, not a measured value. Some doses without a T/C left all or most animals alive at the check, yet need not have been tolerated: the source hardly ever lists a survival T/C far under the control, and the zero likely stands for such cases as well. Survivors were counted at the toxicity check, usually on the fifth day, unless a day is given; later deaths do not show. Schedule codes are those of the source, taken here to give the interval after Q, in days (D) or hours (H), and the number of doses after X. Some doses were run more than once; their values stand side by side, smallest first. Signs of the kind (2×) say how often a value occurs here. Where survival is the endpoint, this PubChem deposit counts one and a half times the control or more as active, and values a quarter to a half above the control carry no call in these data; other NCI protocols may use other cut-offs. Some T/C values are followed by the survivors on the day toxicity was checked, most often the fifth; where none is given, no animal had died by that day.

Tested on: Lewis lung carcinoma i.m., BDF1 mice, T/C %
Test: NCI In Vivo Anticancer Drug Screen. Data for tumor model Lewis Lung Carcinoma (intramuscular) in B6D2F1 (BDF1) mice
Details: T/C endpoint: median survival time, higher T/C = longer survival
In short: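 Antitumour activity is assessed in transplanted-tumour mice. Endpoint is survival or tumour size, normalised to vehicle-dosed controls (T/C).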

O=P1(N(CCCl)CCCl)NCCCO1 (stereo not drawn) was tested, and the T/C (dose: 100.0 mg/kg/injection, schedule: Q01DX001 (ip), vehicle: saline, evaluated on day 13) was 153 % of control, the T/C (dose: 100.0 mg/kg/injection, schedule: Q01DX001 (ip), vehicle: saline, evaluated on day 40) was 137 % of control and the T/C (dose: 100.0 mg/kg/injection, schedule: Q01DX001 (ip), vehicle: saline, evaluated on day 60) was 153 % of control. The T/C (dose: 100.0 mg/kg/injection, schedule: Q01DX001 (ip), vehicle: saline, evaluated on day 93) was 403 % of control, the survivor count (dose: 100.0 mg/kg/injection, schedule: Q01DX009 (ip), vehicle: saline) was 10 of 10 and the T/C (dose: 100.0 mg/kg/injection, schedule: Q03DX010 (ip), vehicle: saline, evaluated on day 9) was 73 % of control. For the same molecule, the T/C (dose: 100.0 mg/kg/injection, schedule: Q03DX010 (ip), vehicle: saline, evaluated on day 13) was 34 % of control, the survivor count (dose: 100.0 mg/kg/injection, schedule: Q03DX010 (ip), vehicle: saline) was 2 of 8 and 8 of 8 and the T/C (dose: 108.0 mg/kg/injection, schedule: Q01DX001 (ip), vehicle: saline, evaluated on day 10) was 135 % of control. For the same molecule, the T/C (dose: 108.0 mg/kg/injection, schedule: Q01DX001 (ip), vehicle: saline, evaluated on day 36) was 97 % of control, the T/C (dose: 108.0 mg/kg/injection, schedule: Q01DX001 (ip), vehicle: saline, evaluated on day 38) was 144 % of control and the T/C (dose: 108.0 mg/kg/injection, schedule: Q01DX001 (ip), vehicle: saline, evaluated on day 40) was 132, 137, 142, 153 % of control. For the same molecule, the T/C (dose: 108.0 mg/kg/injection, schedule: Q01DX001 (ip), vehicle: saline, evaluated on day 41) was 139 and 142 % of control, the T/C (dose: 108.0 mg/kg/injection, schedule: Q01DX001 (ip), vehicle: saline, evaluated on day 42) was 92 [7 of 8 alive], 111, 126, 128 % of control and the T/C (dose: 108.0 mg/kg/injection, schedule: Q01DX001 (ip), vehicle: saline, evaluated on day 43) was 103 % of control. For the same molecule, the T/C (dose: 108.0 mg/kg/injection, schedule: Q01DX001 (ip), vehicle: saline, evaluated on day 47) was 109, 134, 137, 163, 184 % of control, the T/C (dose: 108.0 mg/kg/injection, schedule: Q01DX001 (ip), vehicle: saline, evaluated on day 50) was 146 [7 of 8 alive] and 183 % of control [7 of 8 alive] and the T/C (dose: 108.0 mg/kg/injection, schedule: Q01DX001 (ip), vehicle: saline, evaluated on day 62) was 135 % of control [9 of 10 alive]. The T/C (dose: 108.0 mg/kg/injection, schedule: Q01DX001 (ip), vehicle: saline, evaluated on day 66) was 168 % of control, the survivor count (dose: 108.0 mg/kg/injection, schedule: Q01DX001 (ip), vehicle: saline) was 7 of 8 and the T/C (dose: 108.0 mg/kg/injection, schedule: Q01DX001 (sc), vehicle: saline) was 129 % of control. For the same molecule, the T/C (dose: 108.0 mg/kg/injection, schedule: Q01DX011 (ip), vehicle: saline, evaluated on day 42) was 106, 120, 162 % of control [7 of 8 alive], the T/C (dose: 108.0 mg/kg/injection, schedule: Q01DX011 (ip), vehicle: saline, evaluated on day 47) was 130 % of control and the survivor count (dose: 108.0 mg/kg/injection, schedule: Q08DX003 (ip), vehicle: saline) was 7 of 8. For the same molecule, the T/C (dose: 180.0 mg/kg/injection, schedule: Q01DX001 (ip), vehicle: saline, evaluated on day 10) was 146 % of control, the T/C (dose: 180.0 mg/kg/injection, schedule: Q01DX001 (ip), vehicle: saline, evaluated on day 42) was 150 and 161 % of control [7 of 8 alive] and the T/C (dose: 180.0 mg/kg/injection, schedule: Q01DX001 (ip), vehicle: saline, evaluated on day 50) was 138 and 219 % of control. The T/C (dose: 180.0 mg/kg/injection, schedule: Q01DX001 (ip), vehicle: saline, evaluated on day 62) was 146 % of control [9 of 10 alive], the survivor count (dose: 180.0 mg/kg/injection, schedule: Q01DX001 (ip), vehicle: saline) was 3 of 8, 4 of 8 (2×), 5 of 8, 6 of 8, 8 of 10 and the T/C (dose: 180.0 mg/kg/injection, schedule: Q01DX001 (sc), vehicle: saline) was 143 % of control. For the same molecule, the survivor count (dose: 180.0 mg/kg/injection, schedule: Q08DX003 (ip), vehicle: saline) was 6 of 8, the survivor count (dose: 200.0 mg/kg/injection, schedule: Q01DX001 (ip), vehicle: methylcellulose (MC)) was 3 of 8 and the T/C (dose: 200.0 mg/kg/injection, schedule: Q01DX001 (ip), vehicle: saline, evaluated on day 9) was 100 % of control. For the same molecule, the T/C (dose: 200.0 mg/kg/injection, schedule: Q01DX001 (ip), vehicle: saline, evaluated on day 13) was 195 % of control, the T/C (dose: 200.0 mg/kg/injection, schedule: Q01DX001 (ip), vehicle: saline, evaluated on day 60) was 195 % of control and the T/C (dose: 200.0 mg/kg/injection, schedule: Q01DX001 (ip), vehicle: saline, evaluated on day 93) was 100 % of control. The survivor count (dose: 200.0 mg/kg/injection, schedule: Q03DX010 (ip), vehicle: saline) was 0 of 8, the survivor count (dose: 300.0 mg/kg/injection, schedule: Q01DX001 (ip), vehicle: saline) was 5 of 8 and 7 of 10 and the survivor count (dose: 300.0 mg/kg/injection, schedule: Q08DX003 (ip), vehicle: saline) was 6 of 8. The survivor count (dose: 400.0 mg/kg/injection, schedule: Q01DX001 (ip), vehicle: methylcellulose (MC)) was 0 of 8, the survivor count (dose: 400.0 mg/kg/injection, schedule: Q01DX001 (ip), vehicle: saline) was 4 of 10 and the survivor count (dose: 400.0 mg/kg/injection, schedule: Q01DX001 (sc), vehicle: saline) was 2 of 8. The survivor count (dose: 460.0 mg/kg/injection, schedule: Q01DX001 (ip), vehicle: saline) was 2 of 8.
